Source: patent publication US20240369556A1

Assays:
[1] = biological target: glycosylated envelope (E) protein of West Nile virus, strain VR-1510 (West Nile virus); experiment: cross-react test on flavivirus-infected cells (grade, Table 2)
[2] = biological target: glycosylated envelope (E) protein of Yellow fever virus, strain 17D (Yellow fever virus); experiment: as above
[3] = biological target: glycosylated envelope (E) protein of West Nile virus, strain VR-1510 (West Nile virus); experiment: Western blot, lysate of West Nile virus-infected cells against mock cells

Measured: binding

B1: isolated monoclonal antibody of present disclosure (antibody, V domains shown)
VH: EVQLQQSGPELVKPGASVKISCKTSGYTFTEYTIHWVKQSHGKSLEYIGGINPNNGGTSYKQKFEGKATLTVDKSSSTAYMELRSLTSEDSAVYYCARRGLRPLFDYWGQGTTLTVSS
VL: DIVMTQSQKFMSTSVGDRVSVTCKASQNVGTNVAWYQQKPGQSPKVLIYSASSRYSGVPDRFTGSGSGTDFTLTISNVQSEDLAEYFCQQYNSYLTFGAGTKLELKR
binds: all assays above

These are yes or no findings as the source states them, for the method shown. Binding calls can cover weak binding; strength is not graded here.
